{"sequences": {"note": "Amino acid sequences for entries named in this document (tags omitted). A change or cut given only in a name is not applied to a line headed by its entry.", "UniProt Q17TI5": "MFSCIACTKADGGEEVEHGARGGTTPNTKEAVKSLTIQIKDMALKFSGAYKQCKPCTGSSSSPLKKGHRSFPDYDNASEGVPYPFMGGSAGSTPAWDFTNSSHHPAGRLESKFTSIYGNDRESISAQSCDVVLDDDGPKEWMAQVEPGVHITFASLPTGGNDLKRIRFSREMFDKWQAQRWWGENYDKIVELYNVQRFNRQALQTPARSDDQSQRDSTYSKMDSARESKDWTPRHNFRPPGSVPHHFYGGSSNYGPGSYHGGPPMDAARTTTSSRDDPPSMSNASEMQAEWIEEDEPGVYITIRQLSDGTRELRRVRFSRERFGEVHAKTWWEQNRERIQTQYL"}, "source": "paper doi:10.1101/614636", "biological_target": "T1, BREAKING OF … IN THE STOMATAL LINEAGE (BASL), full length, yeast two-hybrid bait (Arabidopsis thaliana) (UniProt Q5BPF3)", "T1 sequence": "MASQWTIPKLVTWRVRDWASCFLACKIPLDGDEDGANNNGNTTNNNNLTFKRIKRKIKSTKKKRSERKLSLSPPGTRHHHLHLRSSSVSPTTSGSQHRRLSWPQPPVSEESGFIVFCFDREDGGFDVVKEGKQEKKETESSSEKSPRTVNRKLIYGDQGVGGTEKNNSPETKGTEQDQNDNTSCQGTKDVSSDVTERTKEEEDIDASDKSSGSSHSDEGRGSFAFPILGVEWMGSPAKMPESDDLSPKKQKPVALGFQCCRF", "experiment": "two-hybrid", "note": "Results are given in words; binding and its absence hold for the method and conditions named. Binding can be weak; no strength is given.", "data": [{"substance": "BRX C domain, pairwise yeast two-hybrid construct (from UniProt Q17TI5) (domain or fragment)", "values": [{"measurement": "binding", "result": "binds"}]}]}
